Measurements reported in PubChem BioAssay AID1259308 (NCATS, 2017).
This is a random part of about 59,000 reagents. Of all reagents, about 1,510 (2.6%) are marked active. 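Calls use total luciferase alone and ignore viability, so some active siRNAs may act by altering cell number.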 Entries without a mark were called inactive. Reagents against one gene are numbered here.

Purpose: 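Candidate targets for better recombinant protein yield in mammalian cells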 (primary screen)
Cell system: human HEK293 embryonic kidney cells stably expressing firefly luciferase (HEK-CMV-Luc2-Hygro)
Reagents: single siRNA against human genes, 0.8 pmol siRNA per well
Timing: 72 h
Measurement: 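Luciferase light (ONE-Glo) measured on one replicate plate set and viability (CellTiter-Glo) on the other, scaled to a negative control siRNA, with robust z-scores and luciferase per cell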
Scale: total luciferase, z-score and total luciferase, % of control: higher = more reporter protein produced; luciferase per cell, z-score: higher = more reporter output per viable cell; viable cells, % of control: higher = more viable cells
Call rule: 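An siRNA counts as active if its total luciferase robust z-score exceeds 3; genes with two or more such siRNAs out of three were retested with fresh siRNAs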
Meaning of the calls: active = raised luciferase; inactive = no rise

The opening 2 records, to show the layout:
gene	reagent no.	total luciferase, z-score	total luciferase, % of control	luciferase per cell, z-score	viable cells, % of control
RAB17 (GeneID 64284)	1	0.276	87.4	0.318	89.8
RAB17 (GeneID 64284)	2	-1.17	58.7	-1.42	95.3

Main list, repeating the preview:
gene	reagent no.	total luciferase, z-score	total luciferase, % of control	luciferase per cell, z-score	viable cells, % of control
RAB17 (GeneID 64284)	1	0.276	87.4	0.318	89.8
RAB17 (GeneID 64284)	2	-1.17	58.7	-1.42	95.3
RAB17 (GeneID 64284)	3	-0.26	76.7	-0.0714	87.3
FAXC (GeneID 84553)	1	-2.16	39	-2.91	93.8
FAXC (GeneID 84553)	2	0.00979	82.1	-0.293	99.1
FAXC (GeneID 84553)	3	-0.434	73.3	-0.819	102
MFF (GeneID 56947)	1	-1.4	54.1	-1.53	90.4
MFF (GeneID 56947)	2	1.88	119	2.26	73.5
MFF (GeneID 56947)	3	-1.08	60.5	-0.381	74.7
CDC123 (GeneID 8872)	1	0.172	85.3	-0.339	104
CDC123 (GeneID 8872)	2	-1.46	52.9	-0.671	70.6
CDC123 (GeneID 8872)	3	-1.04	61.3	-1.45	100
LINC01446 (GeneID 401337)	1	-1.06	60.9	-0.0603	69.1
LINC01446 (GeneID 401337)	2	-0.275	76.4	-0.358	93.8
LINC01446 (GeneID 401337)	3	-0.403	73.9	-0.0577	83.8
KIAA1586 (GeneID 57691)	1	0.115	84.2	0.816	75.9
KIAA1586 (GeneID 57691)	2	0.835	98.5	0.341	101
KIAA1586 (GeneID 57691)	3	-0.995	62.1	0.513	60.6
DLC1 (GeneID 10395)	1	-0.087	80.2	0.00155	89.5
DLC1 (GeneID 10395)	2	1.84	119	1.11	99
DLC1 (GeneID 10395)	3	0.0973	83.8	0.0691	92
C1orf54 (GeneID 79630)	1	-0.413	73.7	-0.167	86
C1orf54 (GeneID 79630)	2	-0.876	64.5	-1.22	99.4
C1orf54 (GeneID 79630)	3	1.27	107	1.24	86.2
IFNG (GeneID 3458)	1	0.423	90.3	0.29	93.5
IFNG (GeneID 3458)	2	-1.19	58.3	-1.04	85.6
IFNG (GeneID 3458)	3	-0.0761	80.4	0.106	87.3
CA1 (GeneID 759)	1	0.206	86	0.0157	95.7
CA1 (GeneID 759)	2	-2.04	41.3	-1.4	66.7
CA1 (GeneID 759)	3	-1.14	59.1	0.0367	65.4
NBAS (GeneID 51594)	1	0.479	91.4	-0.109	105
NBAS (GeneID 51594)	2	-1.27	56.6	-2.31	116
NBAS (GeneID 51594)	3	1.94	121	1.37	93.9
GOLGA5 (GeneID 9950)	1	-0.0286	81.3	0.828	73.1
GOLGA5 (GeneID 9950)	2	-0.129	79.3	0.12	85.9
GOLGA5 (GeneID 9950)	3	0.919	100	1.22	81.1
SYTL1 (GeneID 84958)	1	0.0214	82.3	0.00434	91.9
SYTL1 (GeneID 84958)	2	-0.527	71.4	-1.01	104
SYTL1 (GeneID 84958)	3	-1.86	44.8	-1.35	71.4
LFNG (GeneID 3955)	1	0.558	93	1.14	76.9
LFNG (GeneID 3955)	2	-1.21	57.8	-1.6	98.5
LFNG (GeneID 3955)	3	0.499	91.8	-0.234	109
H4C2 (GeneID 8366)	1	-0.824	65.5	-1.23	101
H4C2 (GeneID 8366)	2	0.625	94.3	0.231	99.2
H4C2 (GeneID 8366)	3	-0.434	73.3	-0.935	105
CHRNA2 (GeneID 1135)	1	-0.467	72.6	-0.287	87.5
CHRNA2 (GeneID 1135)	2	-0.232	77.3	0.819	69.6
CHRNA2 (GeneID 1135)	3	-0.227	77.4	0.605	73.7
BRD7 (GeneID 29117)	1	-1.65	49.1	-2.01	93.2
BRD7 (GeneID 29117)	2	0.252	86.9	0.0281	96.4
BRD7 (GeneID 29117)	3	-0.0239	81.4	-0.583	106
EOGT (GeneID 285203)	1	-0.198	77.9	-0.276	93.7
EOGT (GeneID 285203)	2	-0.102	79.9	0.0679	87.7
EOGT (GeneID 285203)	3	-0.313	75.7	-0.744	103
FOXJ1 (GeneID 2302)	1	0.0185	82.3	-0.566	107
FOXJ1 (GeneID 2302)	2	-1.95	43	-2.27	87.4
FOXJ1 (GeneID 2302)	3	0.208	86	-0.452	108
